Test results: ChEMBL document CHEMBL1132388, “A ureido-thioisobutyric acid (GW9578) is a subtype-selective PPARalpha agonist with potent lipid-lowering activity” (J Med Chem, 1999)

Target: T1, Peroxisome proliferator-activated receptor gamma (Homo sapiens, UniProt P37231)
T1 sequence (P37231 whole entry): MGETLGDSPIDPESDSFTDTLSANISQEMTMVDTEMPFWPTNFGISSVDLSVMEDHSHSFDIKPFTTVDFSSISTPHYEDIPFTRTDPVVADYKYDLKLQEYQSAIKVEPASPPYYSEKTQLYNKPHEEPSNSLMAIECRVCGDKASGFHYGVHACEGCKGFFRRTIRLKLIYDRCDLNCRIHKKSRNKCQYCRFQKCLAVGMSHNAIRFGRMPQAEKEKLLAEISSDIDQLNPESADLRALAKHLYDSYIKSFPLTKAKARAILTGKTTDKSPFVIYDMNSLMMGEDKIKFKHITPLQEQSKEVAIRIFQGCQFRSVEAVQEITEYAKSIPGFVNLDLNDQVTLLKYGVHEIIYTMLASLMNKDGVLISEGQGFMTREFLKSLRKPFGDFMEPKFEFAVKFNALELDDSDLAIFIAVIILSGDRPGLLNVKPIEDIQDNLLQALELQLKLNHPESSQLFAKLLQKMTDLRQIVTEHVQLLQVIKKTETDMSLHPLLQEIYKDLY

CCCCCCCN(CCc1ccc(SC(C)(C)C(=O)O)cc1)C(=O)Nc1ccc(F)cc1F [GSK-9578]
EC50: 1000 nM
